Source: the supplement of paper PMC6411743
± gives the standard deviation of the averaged measurements. The list shows a part of the results, in another mix than the full data.

Chains of the proteins cited; added tags and fusions are not shown. Lines headed by an entry give the natural chain unless they say otherwise; changes in a name come on top.
UniProt O75695: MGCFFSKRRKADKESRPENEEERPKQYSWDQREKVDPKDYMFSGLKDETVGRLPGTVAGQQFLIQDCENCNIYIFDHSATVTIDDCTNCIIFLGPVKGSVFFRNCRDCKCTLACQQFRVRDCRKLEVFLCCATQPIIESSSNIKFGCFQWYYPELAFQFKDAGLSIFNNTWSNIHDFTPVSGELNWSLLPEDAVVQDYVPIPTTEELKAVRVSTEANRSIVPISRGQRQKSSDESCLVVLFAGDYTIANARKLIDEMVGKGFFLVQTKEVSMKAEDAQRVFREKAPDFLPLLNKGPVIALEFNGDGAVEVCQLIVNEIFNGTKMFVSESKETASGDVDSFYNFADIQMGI
UniProt O75570: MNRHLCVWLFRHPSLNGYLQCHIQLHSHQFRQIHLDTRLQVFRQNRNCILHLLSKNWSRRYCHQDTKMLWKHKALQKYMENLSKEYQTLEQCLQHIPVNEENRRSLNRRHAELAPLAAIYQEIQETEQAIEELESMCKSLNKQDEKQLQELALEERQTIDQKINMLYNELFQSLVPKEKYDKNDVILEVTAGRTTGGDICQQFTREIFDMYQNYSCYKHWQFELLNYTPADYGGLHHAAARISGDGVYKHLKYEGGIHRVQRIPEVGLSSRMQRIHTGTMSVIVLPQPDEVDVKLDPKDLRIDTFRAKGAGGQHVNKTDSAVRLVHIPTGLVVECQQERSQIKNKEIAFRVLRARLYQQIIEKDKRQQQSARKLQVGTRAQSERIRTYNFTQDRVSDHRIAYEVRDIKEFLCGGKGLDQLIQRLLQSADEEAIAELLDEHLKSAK
UniProt O60828: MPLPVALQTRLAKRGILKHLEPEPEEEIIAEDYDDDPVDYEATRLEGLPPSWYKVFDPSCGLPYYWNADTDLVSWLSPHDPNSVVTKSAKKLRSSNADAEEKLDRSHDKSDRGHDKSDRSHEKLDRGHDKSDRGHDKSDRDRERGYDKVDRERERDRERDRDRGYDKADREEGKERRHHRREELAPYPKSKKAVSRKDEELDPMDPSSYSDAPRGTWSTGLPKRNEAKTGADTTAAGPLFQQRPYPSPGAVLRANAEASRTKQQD
UniProt O95544: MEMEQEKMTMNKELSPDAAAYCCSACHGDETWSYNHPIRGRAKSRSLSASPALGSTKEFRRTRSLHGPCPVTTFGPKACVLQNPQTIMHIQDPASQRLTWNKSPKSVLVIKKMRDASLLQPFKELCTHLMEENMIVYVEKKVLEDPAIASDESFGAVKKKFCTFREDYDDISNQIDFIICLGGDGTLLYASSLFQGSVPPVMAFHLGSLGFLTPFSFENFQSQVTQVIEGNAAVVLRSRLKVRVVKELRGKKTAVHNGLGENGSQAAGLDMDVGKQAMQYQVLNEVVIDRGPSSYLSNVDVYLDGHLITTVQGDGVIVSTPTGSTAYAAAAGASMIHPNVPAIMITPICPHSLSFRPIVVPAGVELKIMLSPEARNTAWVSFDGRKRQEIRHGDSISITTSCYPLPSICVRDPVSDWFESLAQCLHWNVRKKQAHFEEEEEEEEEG
UniProt O60927: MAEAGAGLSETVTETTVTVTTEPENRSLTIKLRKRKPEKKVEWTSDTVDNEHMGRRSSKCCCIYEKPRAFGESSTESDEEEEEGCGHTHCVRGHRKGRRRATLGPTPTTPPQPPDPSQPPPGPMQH
UniProt O75879: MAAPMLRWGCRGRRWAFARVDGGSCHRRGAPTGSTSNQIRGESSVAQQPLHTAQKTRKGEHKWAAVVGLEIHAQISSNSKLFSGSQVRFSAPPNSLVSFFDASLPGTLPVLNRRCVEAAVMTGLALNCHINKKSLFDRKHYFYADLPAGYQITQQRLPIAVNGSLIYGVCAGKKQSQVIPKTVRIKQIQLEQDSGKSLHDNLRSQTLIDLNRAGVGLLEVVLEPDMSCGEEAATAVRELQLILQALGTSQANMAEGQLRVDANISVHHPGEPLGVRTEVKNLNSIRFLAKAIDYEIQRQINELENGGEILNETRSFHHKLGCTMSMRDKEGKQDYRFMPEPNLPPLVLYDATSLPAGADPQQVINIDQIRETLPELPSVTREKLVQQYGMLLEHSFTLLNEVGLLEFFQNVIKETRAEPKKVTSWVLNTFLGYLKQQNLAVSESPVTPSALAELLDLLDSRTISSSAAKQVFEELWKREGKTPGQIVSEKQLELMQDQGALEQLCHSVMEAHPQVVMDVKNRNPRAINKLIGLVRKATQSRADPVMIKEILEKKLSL
UniProt O75113: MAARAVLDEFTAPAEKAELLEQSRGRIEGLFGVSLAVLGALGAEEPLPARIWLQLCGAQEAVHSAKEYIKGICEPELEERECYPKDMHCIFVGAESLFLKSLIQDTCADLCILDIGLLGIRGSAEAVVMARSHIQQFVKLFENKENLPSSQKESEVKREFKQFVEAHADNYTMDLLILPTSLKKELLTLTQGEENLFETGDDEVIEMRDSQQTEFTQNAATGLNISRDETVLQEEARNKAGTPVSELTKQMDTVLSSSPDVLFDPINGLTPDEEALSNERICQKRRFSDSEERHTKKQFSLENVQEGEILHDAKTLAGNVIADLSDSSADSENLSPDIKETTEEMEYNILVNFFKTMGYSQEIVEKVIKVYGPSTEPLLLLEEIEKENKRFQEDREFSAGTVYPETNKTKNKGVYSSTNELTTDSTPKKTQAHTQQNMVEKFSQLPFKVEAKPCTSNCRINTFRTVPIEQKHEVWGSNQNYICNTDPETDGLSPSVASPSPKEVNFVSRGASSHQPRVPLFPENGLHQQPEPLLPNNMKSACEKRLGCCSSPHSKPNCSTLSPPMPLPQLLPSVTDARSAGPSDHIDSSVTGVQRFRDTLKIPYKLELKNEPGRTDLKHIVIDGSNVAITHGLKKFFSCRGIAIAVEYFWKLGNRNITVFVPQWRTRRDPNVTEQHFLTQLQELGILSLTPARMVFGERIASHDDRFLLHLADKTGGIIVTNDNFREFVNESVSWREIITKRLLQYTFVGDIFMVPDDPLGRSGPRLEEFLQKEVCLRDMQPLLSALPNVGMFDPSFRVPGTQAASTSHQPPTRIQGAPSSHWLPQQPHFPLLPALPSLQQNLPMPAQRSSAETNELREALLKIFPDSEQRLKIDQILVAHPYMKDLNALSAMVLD
UniProt O94967: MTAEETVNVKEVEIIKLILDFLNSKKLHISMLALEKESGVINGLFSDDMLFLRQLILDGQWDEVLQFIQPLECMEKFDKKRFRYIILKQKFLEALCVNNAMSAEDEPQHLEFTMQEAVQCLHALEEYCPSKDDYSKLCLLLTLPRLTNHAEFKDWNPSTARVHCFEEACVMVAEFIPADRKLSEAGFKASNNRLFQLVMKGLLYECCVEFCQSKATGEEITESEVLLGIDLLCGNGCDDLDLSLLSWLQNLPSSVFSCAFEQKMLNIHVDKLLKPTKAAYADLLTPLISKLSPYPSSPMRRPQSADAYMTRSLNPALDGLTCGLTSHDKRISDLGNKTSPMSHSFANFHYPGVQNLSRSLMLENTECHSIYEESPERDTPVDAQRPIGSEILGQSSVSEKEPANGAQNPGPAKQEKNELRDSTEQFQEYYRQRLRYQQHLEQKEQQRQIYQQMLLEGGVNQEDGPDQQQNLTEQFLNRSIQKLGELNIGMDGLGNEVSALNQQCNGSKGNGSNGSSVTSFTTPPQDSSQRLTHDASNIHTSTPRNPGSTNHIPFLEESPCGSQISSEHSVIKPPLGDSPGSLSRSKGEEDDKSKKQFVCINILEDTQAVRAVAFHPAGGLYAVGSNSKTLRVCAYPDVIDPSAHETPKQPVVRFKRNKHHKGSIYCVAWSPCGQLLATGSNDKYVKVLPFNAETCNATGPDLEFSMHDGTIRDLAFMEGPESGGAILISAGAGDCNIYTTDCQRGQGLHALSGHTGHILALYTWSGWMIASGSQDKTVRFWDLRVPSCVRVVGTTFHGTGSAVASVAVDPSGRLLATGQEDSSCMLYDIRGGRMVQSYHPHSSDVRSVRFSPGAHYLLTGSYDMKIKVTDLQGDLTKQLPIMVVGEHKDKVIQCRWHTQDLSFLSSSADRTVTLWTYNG
UniProt O76003: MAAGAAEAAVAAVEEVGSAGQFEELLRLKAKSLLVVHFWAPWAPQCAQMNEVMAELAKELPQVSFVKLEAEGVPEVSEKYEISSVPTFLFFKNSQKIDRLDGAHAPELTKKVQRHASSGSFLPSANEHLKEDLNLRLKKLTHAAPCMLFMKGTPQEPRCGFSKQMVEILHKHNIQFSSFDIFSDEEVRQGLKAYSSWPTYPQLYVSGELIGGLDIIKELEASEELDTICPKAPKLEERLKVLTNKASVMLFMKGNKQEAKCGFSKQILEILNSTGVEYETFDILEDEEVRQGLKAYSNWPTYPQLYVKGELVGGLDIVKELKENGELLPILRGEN
UniProt O60830: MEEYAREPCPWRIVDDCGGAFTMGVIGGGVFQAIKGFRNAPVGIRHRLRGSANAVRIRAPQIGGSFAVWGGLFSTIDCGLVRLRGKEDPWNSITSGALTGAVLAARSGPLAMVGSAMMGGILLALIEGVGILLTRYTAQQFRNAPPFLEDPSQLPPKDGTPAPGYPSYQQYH
UniProt O75486: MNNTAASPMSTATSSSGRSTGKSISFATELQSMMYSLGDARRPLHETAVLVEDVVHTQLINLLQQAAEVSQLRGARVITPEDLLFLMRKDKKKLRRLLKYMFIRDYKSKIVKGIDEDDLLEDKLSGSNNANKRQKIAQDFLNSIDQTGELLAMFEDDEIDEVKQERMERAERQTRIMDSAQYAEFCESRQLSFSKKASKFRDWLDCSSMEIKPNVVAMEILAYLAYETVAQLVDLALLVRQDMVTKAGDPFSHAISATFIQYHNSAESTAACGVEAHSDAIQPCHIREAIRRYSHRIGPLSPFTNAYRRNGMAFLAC
UniProt O60508: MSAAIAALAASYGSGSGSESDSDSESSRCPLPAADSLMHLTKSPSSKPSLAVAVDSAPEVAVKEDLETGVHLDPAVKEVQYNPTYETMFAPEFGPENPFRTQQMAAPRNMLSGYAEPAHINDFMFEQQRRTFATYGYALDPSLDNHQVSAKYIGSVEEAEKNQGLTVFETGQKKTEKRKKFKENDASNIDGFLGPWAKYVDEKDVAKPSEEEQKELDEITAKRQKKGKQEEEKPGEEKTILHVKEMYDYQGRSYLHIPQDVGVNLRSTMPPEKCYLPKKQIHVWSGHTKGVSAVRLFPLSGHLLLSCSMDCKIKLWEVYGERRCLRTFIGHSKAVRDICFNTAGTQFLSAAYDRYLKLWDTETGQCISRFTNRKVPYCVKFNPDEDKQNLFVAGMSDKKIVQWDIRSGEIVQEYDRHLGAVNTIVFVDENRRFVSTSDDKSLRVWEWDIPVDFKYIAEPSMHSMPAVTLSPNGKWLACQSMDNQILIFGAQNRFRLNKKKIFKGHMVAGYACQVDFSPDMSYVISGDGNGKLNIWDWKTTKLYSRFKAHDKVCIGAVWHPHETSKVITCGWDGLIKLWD
UniProt O60678: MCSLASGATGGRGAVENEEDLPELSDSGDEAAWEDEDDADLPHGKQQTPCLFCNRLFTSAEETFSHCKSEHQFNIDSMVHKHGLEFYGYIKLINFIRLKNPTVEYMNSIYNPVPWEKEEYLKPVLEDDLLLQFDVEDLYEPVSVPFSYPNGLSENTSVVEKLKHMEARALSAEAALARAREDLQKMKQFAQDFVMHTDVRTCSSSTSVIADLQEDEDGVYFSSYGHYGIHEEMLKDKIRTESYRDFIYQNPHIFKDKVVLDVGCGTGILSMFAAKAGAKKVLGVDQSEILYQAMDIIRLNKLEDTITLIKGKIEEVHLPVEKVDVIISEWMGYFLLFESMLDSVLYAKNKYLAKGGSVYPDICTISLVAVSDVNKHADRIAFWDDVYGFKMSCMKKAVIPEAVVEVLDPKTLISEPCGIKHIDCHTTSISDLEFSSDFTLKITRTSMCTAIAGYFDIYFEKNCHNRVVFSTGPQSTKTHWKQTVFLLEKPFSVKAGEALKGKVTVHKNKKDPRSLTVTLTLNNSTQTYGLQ
UniProt O75648: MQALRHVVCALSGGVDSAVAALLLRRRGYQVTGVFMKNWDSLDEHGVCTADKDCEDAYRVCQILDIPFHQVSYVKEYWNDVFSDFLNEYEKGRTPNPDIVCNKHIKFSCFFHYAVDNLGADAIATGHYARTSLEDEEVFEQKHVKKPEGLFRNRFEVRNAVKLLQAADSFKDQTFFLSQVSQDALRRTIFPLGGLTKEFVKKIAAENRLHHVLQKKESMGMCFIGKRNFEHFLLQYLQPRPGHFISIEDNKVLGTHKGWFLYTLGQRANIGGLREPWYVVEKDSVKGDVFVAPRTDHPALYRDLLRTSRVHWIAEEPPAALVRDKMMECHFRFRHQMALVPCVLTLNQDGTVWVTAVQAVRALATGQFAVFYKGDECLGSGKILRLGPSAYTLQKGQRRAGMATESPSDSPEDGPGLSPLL

Compound: Nc1ncnc2c1ncn2[C@@H]1O[C@H](COP(=O)(O)OP(=O)(O)OP(=O)(O)O)[C@@H](O)[C@H]1O [adenosine triphosphate]
Assay: NP40-soluble protein abundance relative to vehicle (solubility fold change) (ratio); higher = more soluble protein in presence of ATP
In short: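 In three independent experiments, Jurkat crude lysate made by Dounce homogenisation was treated for 10 min at room temperature and then 3 min at 37 °C with eight concentrations ranging from 0.1 to 10 mM. It was then solubilised with 0.8% NP40 plus benzonase for 60 min at 4 °C and ultracentrifuged. The supernatant was TMT-labelled for LC-MS/MS, and each value is the fold change against the detergent-processed vehicle for the same replicate, using vsn-normalised intensities.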

Target	NP40-soluble protein abundance (concentration: 1mM)	NP40-soluble protein abundance (concentration: 2mM)	NP40-soluble protein abundance (concentration: 4mM)	NP40-soluble protein abundance (concentration: 6mM)	NP40-soluble protein abundance (concentration: 8mM)	NP40-soluble protein abundance (concentration: 10mM)
RP2 (UniProt O75695)	0.989 ± 0.025	0.98 ± 0.046	0.965 ± 0.05	0.966 ± 0.053	0.962 ± 0.051	0.952 ± 0.065
SLC25A12 (UniProt O75746)	0.998 ± 0.04	0.986 ± 0.025	0.984 ± 0.034	0.934 ± 0.02	1 ± 0.03	1.01 ± 0.023
MTRF1 (UniProt O75570)	0.991 ± 0.053	1.03 ± 0.11	1.06 ± 0.059	1.07 ± 0.056	1.02 ± 0.032	1.08 ± 0.13
UniProt O60828 and related entries	1.04 ± 0.13	1.07 ± 0.046	1.06 ± 0.079	1.18 ± 0.07	1.12 ± 0.038	1.11 ± 0.039
NADK (UniProt O95544)	0.934 ± 0.011	0.922 ± 0.082	0.95 ± 0.018	0.916 ± 0.035	0.91 ± 0.041	0.917 ± 0.044
PPP1R11 (UniProt O60927)	0.899 ± 0.091	0.969 ± 0.039	0.97 ± 0.037	0.998 ± 0.091	0.941 ± 0.039	0.944 ± 0.026
UniProt O94927	0.95 ± 0.042	0.9783 ± 0.0027	1.04 ± 0.019	0.977 ± 0.034	0.992 ± 0.027	0.992 ± 0.043
UniProt O75879 and related entries	0.9649 ± 0.0093	0.9749 ± 0.0054	0.974 ± 0.041	0.975 ± 0.026	0.948 ± 0.011	0.971 ± 0.029
N4BP1 (UniProt O75113)	0.96 ± 0.018	0.942 ± 0.019	0.942 ± 0.026	0.96 ± 0.022	0.9157 ± 0.008	0.918 ± 0.016
UniProt O94967 and related entries	1 ± 0.04	0.946 ± 0.031	0.998 ± 0.068	0.9654 ± 0.0075	0.921 ± 0.058	1.01 ± 0.077
UniProt O95271 and related entries	1.06 ± 0.059	1.02 ± 0.011	1.07 ± 0.075	1.13 ± 0.049	1.09 ± 0.12	1.16 ± 0.059
KATNA1 (UniProt O75449)	1 ± 0.033	0.983 ± 0.014	0.958 ± 0.017	0.988 ± 0.023	0.982 ± 0.022	0.96 ± 0.046
GLRX3 (UniProt O76003)	1.01 ± 0.022	1.013 ± 0.0094	0.957 ± 0.02	1.03 ± 0.035	0.95 ± 0.048	0.948 ± 0.02
UniProt O60830 and related entries	0.858 ± 0.09	0.916 ± 0.057	0.903 ± 0.048	0.831 ± 0.085	0.909 ± 0.058	0.939 ± 0.032
UniProt O75486 and related entries	1.07 ± 0.15	1.06 ± 0.02	1.05 ± 0.15	1.25 ± 0.25	1.23 ± 0.13	1.18 ± 0.1
UniProt O60508 and related entries	1.08 ± 0.087	1.04 ± 0.043	1.06 ± 0.044	1.06 ± 0.025	1.14 ± 0.072	1.14 ± 0.043
PRMT3 (UniProt O60678)	1.05 ± 0.089	1.01 ± 0.068	0.996 ± 0.065	0.937 ± 0.089	1.03 ± 0.011	1.01 ± 0.056
UniProt O95758-2|O95758-6|O95758 and related entries	1 ± 0.03	1.01 ± 0.037	1.06 ± 0.061	0.998 ± 0.046	1.01 ± 0.023	0.998 ± 0.025
UniProt O75648 and related entries	1.06 ± 0.16	0.996 ± 0.11	1.01 ± 0.11	0.942 ± 0.16	1 ± 0.098	1.08 ± 0.16

2 entries picked at random from the list so far, as already listed:
Target	NP40-soluble protein abundance (concentration: 1mM)	NP40-soluble protein abundance (concentration: 2mM)	NP40-soluble protein abundance (concentration: 4mM)	NP40-soluble protein abundance (concentration: 6mM)	NP40-soluble protein abundance (concentration: 8mM)	NP40-soluble protein abundance (concentration: 10mM)
UniProt O60508 and related entries	1.08 ± 0.087	1.04 ± 0.043	1.06 ± 0.044	1.06 ± 0.025	1.14 ± 0.072	1.14 ± 0.043
UniProt O95758-2|O95758-6|O95758 and related entries	1 ± 0.03	1.01 ± 0.037	1.06 ± 0.061	0.998 ± 0.046	1.01 ± 0.023	0.998 ± 0.025
